Experimental data: patent publication US20220265700A1, “METHODS TO PREVENT, INHIBIT OR TREAT INTERVERTEBRAL DISC DEGENERATION” (University of Iowa Research Foundation, priority 2021, published 2022)
For at least one compound, name, drawing or mass did not settle the structure.

Test system: p38
Assay: Immunofluorescence staining of phosphorylated p38
Type: cell-based, rabbit
Details: 10 mM NAC, […] amobarbital or 20 μM inhibitor; 50 μM tBHP 1 h

Oc1c2ccccc2c2c3c(cccc13)N=N2 [SP600125]
phosphorylation of p38 vs. tBHP: minimized the phosphorylation
